Data as given in PubChem BioAssay AID485314 (National Center for Advancing Translational Sciences (NCATS), 2010).
Out of some 340,000 compounds screened, about 4,500 (1.3%) were called active. The inconclusive results got no clear call from the source; some entries with a clear call stand among them for comparison. Calls follow the shape of the dose curve; as a rule, active = well fitted inhibition curve with a large enough effect; inconclusive = small, poorly fitted or top-dose-only effect, or another doubt; inactive = no such curve, though single readings can be large or run the other way. Where the call is inconclusive, the potency comes from a doubtful curve fit.

Target: DNA polymerase beta (Homo sapiens) (UniProt P06746)
Assay: qHTS Assay for Inhibitors of DNA Polymerase Beta
Settings: Pol beta primer extension/strand displacement, fluorescence kinetic; activity change, negative = inhibition: at 114 µM (top of the series)
Summary of the method: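 Pol beta (10 nM) was preincubated with compound for 15 min at room temperature. The reaction was then started with 50 nM substrate and read immediately and after a further 10 min at room temperature.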
% is scaled to controls: 0 for no effect and ±100 for the full control effect; potency is read from the fitted curve at half-maximal effect.

Potency, active:
CC1=C(C#N)C(=O)N(C2CCS(=O)(=O)C2)C(=O)/C1=C\c1ccc(C)o1 (configuration not stated) 12.6 µM, COc1ccc(-c2nc3n(n2)C(=O)CC(c2ccco2)S3)cc1 (configuration not stated) 22.4 µM

Potency, inconclusive:
COC(=O)Cn1c(=O)c2c(nc3n2CCN3c2cccc(C)c2)n(C)c1=O 50.1 µM [inhibitor, partial curve, poor fit], O=C(CCCOc1ccc(Cl)cc1Cl)NNC(=O)c1ccc(NC(=O)c2ccccc2)cc1 2.82 µM [inhibitor, full curve], Cc1cc(C(=O)COC(=O)c2cccn2C)c(C)n1Cc1ccco1 89.1 µM [inhibitor, single point], Cc1ccccc1-c1nc(C#N)c(NCc2ccco2)o1 0.141 µM [inhibitor, full curve, poor fit], Cc1ccc(-n2c(CCC(=O)O)ccc2-c2cccs2)cc1C 56.2 µM [inhibitor, partial curve], Cc1cccc(-n2nnc3c(=O)n(CC(=O)Nc4cc(C)on4)cnc32)c1 31.6 µM [inhibitor, partial curve, poor fit], C#CCn1c(=NC(=O)c2ccc(Br)s2)sc2cc(NC(C)=O)ccc21 2.82 µM [inhibitor, single point], N#CC1CC(c2ccccc2)=NN1c1ccccc1[N+](=O)[O-] (configuration not stated) 89.1 µM [inhibitor, single point], Cc1ccccc1NC(=O)C1CCCN(c2nnc(N3CCCC3=O)s2)C1 (configuration not stated) 89.1 µM [inhibitor, single point], CCC(CO)[n+]1c(C)cc(/C=C2\Sc3ccccc3N2Cc2ccccc2)cc1C (configuration not stated) 56.2 µM [inhibitor, partial curve, poor fit], COc1ccc(-c2nc(C#N)c(NCCCN(C)C)o2)cc1OC 31.6 µM [inhibitor, full curve], CCCCn1c(SCC(=O)c2ccc(O)c(O)c2)nc2ccsc2c1=O 39.8 µM [inhibitor, single point], CCOC(=O)c1ccc(-n2c(N)c(C(=O)OC)c3nc4ccccc4nc32)cc1 50.1 µM [inhibitor, single point], Cc1cccc(Cn2cccc2/C=C2/C(=N)N3C=CSC3=NC2=O)c1 22.4 µM [inhibitor, full curve], O=C(O)C1C2C=CC3(CN(C/C=C/c4ccccc4)C(=O)C13)O2 (configuration not stated) 12.6 µM [inhibitor, partial curve, poor fit], O=C(Nc1ccc2c(c1)OCCO2)C1CCN(S(=O)(=O)c2ccc3c(c2)OCCO3)CC1 89.1 µM [inhibitor, single point], CCc1ccccc1NC(=O)CN(c1ccc(OC)cc1OC)S(=O)(=O)c1ccccc1[N+](=O)[O-] 89.1 µM [inhibitor, single point], COc1ccccc1-c1nc(S(=O)(=O)c2ccc(Cl)cc2)c(N2CCCCCC2)o1 0.316 µM [inhibitor, partial curve], Oc1c(Br)cc(/C=N/NC(=S)NCc2ccco2)cc1Br 12.6 µM [inhibitor, partial curve], Cn1c(=O)c(C(=O)COC(=O)c2cc(-c3ccco3)nc3ccccc23)c(N)n(Cc2ccccc2)c1=O 15.8 µM [inhibitor, full curve], Nc1ccnn1-c1ccccc1 25.1 µM [inhibitor, single point], COc1ccc(-c2csc(NC(=S)NC(=O)c3cccs3)n2)cc1OC 6.31 µM [inhibitor, full curve, poor fit], Cc1cccn2c(=O)c(/C=C(\C#N)c3nc4ccccc4n3C)c(Oc3ccc(Br)cc3)nc12 10 µM [inhibitor, partial curve], O=C(C1CCN(S(=O)(=O)c2ccccc2)CC1)N1CCN(Cc2ccccc2)CC1 39.8 µM [inhibitor, single point], CCOc1ccc(/C=N/NC(=O)C2CCCC2)c(OCC)c1 39.8 µM [inhibitor, single point], COc1cc(NS(=O)(=O)c2ccc(N=Cc3c(C)[nH]n(-c4ccccc4)c3=O)cc2)nc(OC)n1 89.1 µM [inhibitor, single point], O=[N+]([O-])c1ccc(C[n+]2cccc3ccccc32)cc1 0.794 µM [inhibitor, full curve, poor fit], COc1cc(/C=N/NC(=O)c2cccc3ccccc23)cc(OC)c1O 44.7 µM [inhibitor, partial curve, poor fit]

Activity change, negative = inhibition, inactive:
O=C(Nc1ccc(C(F)(F)F)cc1)C1CCC(CNS(=O)(=O)c2cccc3nsnc23)CC1 (configuration not stated) -18.6%, O=C(CN1C(=O)NC2(CCCC2)C1=O)Nc1ccc(Cl)cc1C(F)(F)F 3.08%, O=C(Nc1nccs1)c1ccc2ccccc2c1 13.3%, C=CCn1c(C)cc(C2=NNC(=NCc3ccccc3)SC2)c1C 30.2%, CC1CCCN(c2csc3ccc(F)cc3c2=O)C1 (configuration not stated) 13.1%, CCOc1ccc(CNC(=O)C2CCCN(c3nc4c(C)cc(C)cc4s3)C2)cc1 (configuration not stated) 32.3%, O=C(NCCc1ccccc1)c1ccc2c(=O)[nH]c3c(C(=O)NCC4CCCO4)sc(=S)n3c2c1 (configuration not stated) 13.8%, CCOc1ccccc1NC(=O)c1c(C)cc(C)nc1SCC(=O)c1cccc(OC)c1 3.39%, Cc1nn(-c2ccccc2)cc1C(c1c(N)[nH]c(=S)[nH]c1=O)c1c(N)[nH]c(=S)[nH]c1=O -0.726%, COc1ccc(-c2cc(C(=O)NCCN3CCOCC3)c3cc(C(C)C)ccc3n2)cc1 9.88%

Activity change, negative = inhibition, inconclusive:
CCS(=O)(=O)C1=NSC2=NC(=O)/C(=C\c3ccc(OS(=O)(=O)c4ccccc4)c(OC)c3)C(=N)N21 -32.5% [inhibitor], Brc1ccc(-c2nnc(Cc3ccccc3)o2)cc1 -32.5% [inhibitor]
